The results in this text go back to PMC7914255.

Results are given in words; binding and its absence hold for the method and conditions named. Where a sequence is shown, tags or fusion partners need not be part of it.

The test has as its target T1, GST-TRIM41 (mouse) (UniProt Q5NCC3).
T1 sequence: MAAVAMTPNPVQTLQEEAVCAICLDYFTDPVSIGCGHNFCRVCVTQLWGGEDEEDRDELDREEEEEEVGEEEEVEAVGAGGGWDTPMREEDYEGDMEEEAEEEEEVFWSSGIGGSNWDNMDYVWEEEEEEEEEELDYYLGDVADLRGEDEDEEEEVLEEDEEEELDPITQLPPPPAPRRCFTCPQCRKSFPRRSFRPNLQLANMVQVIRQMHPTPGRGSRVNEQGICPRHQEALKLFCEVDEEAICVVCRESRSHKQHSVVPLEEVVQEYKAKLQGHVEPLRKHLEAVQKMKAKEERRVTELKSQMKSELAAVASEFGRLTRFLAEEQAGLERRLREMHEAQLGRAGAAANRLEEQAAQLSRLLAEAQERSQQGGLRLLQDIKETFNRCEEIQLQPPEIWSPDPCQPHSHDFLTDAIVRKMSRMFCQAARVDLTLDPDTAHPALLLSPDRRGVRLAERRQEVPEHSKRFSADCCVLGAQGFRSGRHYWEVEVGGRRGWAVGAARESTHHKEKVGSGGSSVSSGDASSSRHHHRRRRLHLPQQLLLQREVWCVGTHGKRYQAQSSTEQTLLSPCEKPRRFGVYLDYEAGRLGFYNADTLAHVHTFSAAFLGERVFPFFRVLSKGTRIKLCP
The experiment in a line: condition: 1 μg GST-TRIM41 with 1 μg recombinant CARD11; pull-down; 1 μg GST or GST-TRIM41 coincubated with 1 μg recombinant CARD9, CARD11 or BCL10 for 1 h; sepharose 4B beads; Western blotting; both purified.

B1: Recombinant CARD11 (Creative BioMart Card11-385M) (protein, UniProt Q8CIS0 1-1159)
chain: MPGGGPAMDDYMETLKDEEEALWDNVECNRHMLSRYINPAKLTPYLRQCKVIDEQDEDEVLNAPMLPSKINRAGRLLDILHTKGQRGYVVFLESLEFYYPELYKLVTGKEPTRRFSTIVVEEGHEGLTHFLMNEVIKLQQQVKAKDLQRCELLAKSRQLEDEKKQLSLIRVELLTFQERYYKMKEERDSYNDELVKVKDDNYNLAMRYAQLSEEKNMAVMRSRDLQLEIDQLKHRLNKMEEECKLERNQSLKLKNDIENRPRKEQVLELERENEMLKTKIQELQSIIQAGKRSLPDSDKAILDILEHDRKEALEDRQELVNKIYNLQEEVRQAEELRDKYLEEKEDLELKCSTLGKDCEMYKHRMNTVMLQLEEVERERDQAFHSRDEAQTQYSQCLIEKDKYRKQIRELEEKNDEMRIEMVRREACIVNLESKLRRLSKDNGSLDQSLPRHLPATIISQNLGDTSPRTNGQEADDSSTSEESPEDSKYFLPYHPPRRRMNLKGIQLQRAKSPISMKQASEFQALMRTVKGHEEDFTDGSPSSSRSLPVTSSFSKMQPHRSRSSIMSITAEPPGNDSIVRRCKEDAPHRSTVEEDNDSCGFDALDLDDENHERYSFGPPSIHSSSSSHQSEGLDAYDLEQVNLMLRKFSLERPFRPSVTSGGHVRGTGPLVQHTTLNGDGLITQLTLLGGNARGSFIHSVKPGSLAERAGLREGHQLLLLEGCIRGERQSVPLDACTKEEARWTIQRCSGLITLHYKVNHEGYRKLLKEMEDGLITSGDSFYIRLNLNISSQLDACSMSLKCDDVVHVLDTMYQDRHEWLCARVDPFTDQDLDTGTIPSYSRAQQLLLVKLQRLVHRGNREEADSAHHTLRSLRNTLQPEEMLSTSDPRVSPRLSRASFFFGQLLQFVSRSENKYKRMNSNERVRIISGSPLGSLSRSSLDATKLLTEKHEELDPENELSRNLTLIPYSLVRAFHCERRRPVLFTPTMLAKTLVQKLLNSGGAMEFTICKSDIVTRDEFLRKQKTETIIYSREKNPNTFECIVPANIEAVAAKNKHCLLEAGIGCVRDLIKCKVYPIVLLIRVSEKNIKRFRKLLPRPETEEEFLRVCRLKEKELEALPCLYATVEAEMWSSVEELLRVLKDKIVEEQRKTIWVDEDQL
As to B1, the binding result was “no binding”.
